Results deposited as PubChem BioAssay AID504784 (Drosophila RNAi Screening Center, 2011).

Aim: 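Search for regulators of lipid droplet storage in oleate-fed fly cells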 (primary screen)
System: Drosophila Kc167 embryonic cells
Reagents: long dsRNA against Drosophila genes, about 250 ng dsRNA per well
Timing: 4 days
Challenge: cells fed 400 µM oleic acid bound to BSA
Detection: 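Cells imaged and segmented; ratio of lipid droplet area to nuclear area, log-transformed, then normalised as a B-score over the screen; higher means more stored lipid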
Scale: droplet/nuclear area B-score: higher = more stored lipid (overstorage)
The screen tested about 17,000 reagents; shown is a random part of those with a known target gene and a result. 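Each column is one replicate's B-score; the combined score over replicates was not deposited, so single values may mislead.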 Reagents against one gene are numbered here. A plus sign joins genes that one reagent is predicted to hit. Not all columns of the deposit are shown.

{"gene": "DCAF12", "reagent no.": 1, "droplet/nuclear area B-score, replicate 1": -0.572}
{"gene": "CG3494", "reagent no.": 1, "droplet/nuclear area B-score, replicate 1": -1.78}
{"gene": "Mipp1", "reagent no.": 1, "droplet/nuclear area B-score, replicate 1": -1.66}
{"gene": "CG4887", "reagent no.": 1, "droplet/nuclear area B-score, replicate 1": 0.727}
{"gene": "CG4887", "reagent no.": 2, "droplet/nuclear area B-score, replicate 1": 0.0826}
{"gene": "CG13226", "reagent no.": 1, "droplet/nuclear area B-score, replicate 1": -0.61}
{"gene": "phu", "reagent no.": 1, "droplet/nuclear area B-score, replicate 1": 1.73}
{"gene": "CG31418", "reagent no.": 1, "droplet/nuclear area B-score, replicate 1": 0.289}
{"gene": "CG15765", "reagent no.": 1, "droplet/nuclear area B-score, replicate 1": 0.53}
{"gene": "CG15765", "reagent no.": 2, "droplet/nuclear area B-score, replicate 1": -0.889}
{"gene": "CG12448", "reagent no.": 1, "droplet/nuclear area B-score, replicate 1": 0.273}
{"gene": "CG33969 + fbl", "reagent no.": 1, "droplet/nuclear area B-score, replicate 1": 0.045}
{"gene": "CG32485", "reagent no.": 1, "droplet/nuclear area B-score, replicate 1": 1.79}
{"gene": "Rbm13", "reagent no.": 1, "droplet/nuclear area B-score, replicate 1": 0.135}
{"gene": "CG42673", "reagent no.": 1, "droplet/nuclear area B-score, replicate 1": -1.29}
{"gene": "CG42673", "reagent no.": 2, "droplet/nuclear area B-score, replicate 1": -1.37}
{"gene": "CG42673", "reagent no.": 3, "droplet/nuclear area B-score, replicate 1": -0.512}
{"gene": "CG42673", "reagent no.": 4, "droplet/nuclear area B-score, replicate 1": -0.0465}
{"gene": "CG42673", "reagent no.": 5, "droplet/nuclear area B-score, replicate 1": -0.711}
{"gene": "CG42673", "reagent no.": 6, "droplet/nuclear area B-score, replicate 1": 0.148}
{"gene": "Pax", "reagent no.": 1, "droplet/nuclear area B-score, replicate 1": 1.7}
{"gene": "Pax", "reagent no.": 2, "droplet/nuclear area B-score, replicate 1": 1.39}
{"gene": "Pax", "reagent no.": 3, "droplet/nuclear area B-score, replicate 1": 0.203}
{"gene": "nan", "reagent no.": 1, "droplet/nuclear area B-score, replicate 1": -0.349}

4 consecutive entries already listed, for reference:
{"gene": "CG42673", "reagent no.": 4, "droplet/nuclear area B-score, replicate 1": -0.0465}
{"gene": "CG42673", "reagent no.": 5, "droplet/nuclear area B-score, replicate 1": -0.711}
{"gene": "CG42673", "reagent no.": 6, "droplet/nuclear area B-score, replicate 1": 0.148}
{"gene": "Pax", "reagent no.": 1, "droplet/nuclear area B-score, replicate 1": 1.7}

Additional results follow:
{"gene": "temp", "reagent no.": 1, "droplet/nuclear area B-score, replicate 1": 0.812}
{"gene": "Clic", "reagent no.": 1, "droplet/nuclear area B-score, replicate 1": -0.211}
{"gene": "l(2)SH0834", "reagent no.": 1, "droplet/nuclear area B-score, replicate 1": 4.97}
{"gene": "Boh2", "reagent no.": 1, "droplet/nuclear area B-score, replicate 1": -1.71}
{"gene": "Prosbeta4R1", "reagent no.": 1, "droplet/nuclear area B-score, replicate 1": 1.35}
{"gene": "Nhe2", "reagent no.": 1, "droplet/nuclear area B-score, replicate 1": 2}
{"gene": "Nhe2", "reagent no.": 2, "droplet/nuclear area B-score, replicate 1": 0.136}
{"gene": "mRpS18C", "reagent no.": 1, "droplet/nuclear area B-score, replicate 1": 2.56}
{"gene": "CG11456", "reagent no.": 1, "droplet/nuclear area B-score, replicate 1": -0.464}
{"gene": "CG34457", "reagent no.": 1, "droplet/nuclear area B-score, replicate 1": 0.267}
{"gene": "GstD5", "reagent no.": 1, "droplet/nuclear area B-score, replicate 1": 0.197}
{"gene": "mus304", "reagent no.": 1, "droplet/nuclear area B-score, replicate 1": -0.818}
{"gene": "AANATL5", "reagent no.": 1, "droplet/nuclear area B-score, replicate 1": 1.82}
{"gene": "CG17167", "reagent no.": 1, "droplet/nuclear area B-score, replicate 1": -0.119}
{"gene": "CG17167", "reagent no.": 2, "droplet/nuclear area B-score, replicate 1": -3.64}
{"gene": "Hmt-1", "reagent no.": 1, "droplet/nuclear area B-score, replicate 1": -1.8}
